Results are given in words; binding and its absence hold for the method and conditions named. Binding seen in cells or lysates may run through a third protein. These calls come from enrichment with a bait or labelling near it, and not all partners need be listed.
Target: recombinant GST-Rab7 phosphorylated in vitro by TBK1 (UniProt P18067)
Test: affinity purification with mass spectrometry

Amino acid sequences for entries named in this document (tags omitted).
UniProt P18067: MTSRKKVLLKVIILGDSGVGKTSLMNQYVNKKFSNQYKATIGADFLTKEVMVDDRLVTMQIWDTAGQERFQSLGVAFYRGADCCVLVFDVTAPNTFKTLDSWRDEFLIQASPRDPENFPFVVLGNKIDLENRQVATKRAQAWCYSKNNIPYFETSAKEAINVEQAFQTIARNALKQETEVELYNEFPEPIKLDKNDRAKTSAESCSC
UniProt Q9JHU4: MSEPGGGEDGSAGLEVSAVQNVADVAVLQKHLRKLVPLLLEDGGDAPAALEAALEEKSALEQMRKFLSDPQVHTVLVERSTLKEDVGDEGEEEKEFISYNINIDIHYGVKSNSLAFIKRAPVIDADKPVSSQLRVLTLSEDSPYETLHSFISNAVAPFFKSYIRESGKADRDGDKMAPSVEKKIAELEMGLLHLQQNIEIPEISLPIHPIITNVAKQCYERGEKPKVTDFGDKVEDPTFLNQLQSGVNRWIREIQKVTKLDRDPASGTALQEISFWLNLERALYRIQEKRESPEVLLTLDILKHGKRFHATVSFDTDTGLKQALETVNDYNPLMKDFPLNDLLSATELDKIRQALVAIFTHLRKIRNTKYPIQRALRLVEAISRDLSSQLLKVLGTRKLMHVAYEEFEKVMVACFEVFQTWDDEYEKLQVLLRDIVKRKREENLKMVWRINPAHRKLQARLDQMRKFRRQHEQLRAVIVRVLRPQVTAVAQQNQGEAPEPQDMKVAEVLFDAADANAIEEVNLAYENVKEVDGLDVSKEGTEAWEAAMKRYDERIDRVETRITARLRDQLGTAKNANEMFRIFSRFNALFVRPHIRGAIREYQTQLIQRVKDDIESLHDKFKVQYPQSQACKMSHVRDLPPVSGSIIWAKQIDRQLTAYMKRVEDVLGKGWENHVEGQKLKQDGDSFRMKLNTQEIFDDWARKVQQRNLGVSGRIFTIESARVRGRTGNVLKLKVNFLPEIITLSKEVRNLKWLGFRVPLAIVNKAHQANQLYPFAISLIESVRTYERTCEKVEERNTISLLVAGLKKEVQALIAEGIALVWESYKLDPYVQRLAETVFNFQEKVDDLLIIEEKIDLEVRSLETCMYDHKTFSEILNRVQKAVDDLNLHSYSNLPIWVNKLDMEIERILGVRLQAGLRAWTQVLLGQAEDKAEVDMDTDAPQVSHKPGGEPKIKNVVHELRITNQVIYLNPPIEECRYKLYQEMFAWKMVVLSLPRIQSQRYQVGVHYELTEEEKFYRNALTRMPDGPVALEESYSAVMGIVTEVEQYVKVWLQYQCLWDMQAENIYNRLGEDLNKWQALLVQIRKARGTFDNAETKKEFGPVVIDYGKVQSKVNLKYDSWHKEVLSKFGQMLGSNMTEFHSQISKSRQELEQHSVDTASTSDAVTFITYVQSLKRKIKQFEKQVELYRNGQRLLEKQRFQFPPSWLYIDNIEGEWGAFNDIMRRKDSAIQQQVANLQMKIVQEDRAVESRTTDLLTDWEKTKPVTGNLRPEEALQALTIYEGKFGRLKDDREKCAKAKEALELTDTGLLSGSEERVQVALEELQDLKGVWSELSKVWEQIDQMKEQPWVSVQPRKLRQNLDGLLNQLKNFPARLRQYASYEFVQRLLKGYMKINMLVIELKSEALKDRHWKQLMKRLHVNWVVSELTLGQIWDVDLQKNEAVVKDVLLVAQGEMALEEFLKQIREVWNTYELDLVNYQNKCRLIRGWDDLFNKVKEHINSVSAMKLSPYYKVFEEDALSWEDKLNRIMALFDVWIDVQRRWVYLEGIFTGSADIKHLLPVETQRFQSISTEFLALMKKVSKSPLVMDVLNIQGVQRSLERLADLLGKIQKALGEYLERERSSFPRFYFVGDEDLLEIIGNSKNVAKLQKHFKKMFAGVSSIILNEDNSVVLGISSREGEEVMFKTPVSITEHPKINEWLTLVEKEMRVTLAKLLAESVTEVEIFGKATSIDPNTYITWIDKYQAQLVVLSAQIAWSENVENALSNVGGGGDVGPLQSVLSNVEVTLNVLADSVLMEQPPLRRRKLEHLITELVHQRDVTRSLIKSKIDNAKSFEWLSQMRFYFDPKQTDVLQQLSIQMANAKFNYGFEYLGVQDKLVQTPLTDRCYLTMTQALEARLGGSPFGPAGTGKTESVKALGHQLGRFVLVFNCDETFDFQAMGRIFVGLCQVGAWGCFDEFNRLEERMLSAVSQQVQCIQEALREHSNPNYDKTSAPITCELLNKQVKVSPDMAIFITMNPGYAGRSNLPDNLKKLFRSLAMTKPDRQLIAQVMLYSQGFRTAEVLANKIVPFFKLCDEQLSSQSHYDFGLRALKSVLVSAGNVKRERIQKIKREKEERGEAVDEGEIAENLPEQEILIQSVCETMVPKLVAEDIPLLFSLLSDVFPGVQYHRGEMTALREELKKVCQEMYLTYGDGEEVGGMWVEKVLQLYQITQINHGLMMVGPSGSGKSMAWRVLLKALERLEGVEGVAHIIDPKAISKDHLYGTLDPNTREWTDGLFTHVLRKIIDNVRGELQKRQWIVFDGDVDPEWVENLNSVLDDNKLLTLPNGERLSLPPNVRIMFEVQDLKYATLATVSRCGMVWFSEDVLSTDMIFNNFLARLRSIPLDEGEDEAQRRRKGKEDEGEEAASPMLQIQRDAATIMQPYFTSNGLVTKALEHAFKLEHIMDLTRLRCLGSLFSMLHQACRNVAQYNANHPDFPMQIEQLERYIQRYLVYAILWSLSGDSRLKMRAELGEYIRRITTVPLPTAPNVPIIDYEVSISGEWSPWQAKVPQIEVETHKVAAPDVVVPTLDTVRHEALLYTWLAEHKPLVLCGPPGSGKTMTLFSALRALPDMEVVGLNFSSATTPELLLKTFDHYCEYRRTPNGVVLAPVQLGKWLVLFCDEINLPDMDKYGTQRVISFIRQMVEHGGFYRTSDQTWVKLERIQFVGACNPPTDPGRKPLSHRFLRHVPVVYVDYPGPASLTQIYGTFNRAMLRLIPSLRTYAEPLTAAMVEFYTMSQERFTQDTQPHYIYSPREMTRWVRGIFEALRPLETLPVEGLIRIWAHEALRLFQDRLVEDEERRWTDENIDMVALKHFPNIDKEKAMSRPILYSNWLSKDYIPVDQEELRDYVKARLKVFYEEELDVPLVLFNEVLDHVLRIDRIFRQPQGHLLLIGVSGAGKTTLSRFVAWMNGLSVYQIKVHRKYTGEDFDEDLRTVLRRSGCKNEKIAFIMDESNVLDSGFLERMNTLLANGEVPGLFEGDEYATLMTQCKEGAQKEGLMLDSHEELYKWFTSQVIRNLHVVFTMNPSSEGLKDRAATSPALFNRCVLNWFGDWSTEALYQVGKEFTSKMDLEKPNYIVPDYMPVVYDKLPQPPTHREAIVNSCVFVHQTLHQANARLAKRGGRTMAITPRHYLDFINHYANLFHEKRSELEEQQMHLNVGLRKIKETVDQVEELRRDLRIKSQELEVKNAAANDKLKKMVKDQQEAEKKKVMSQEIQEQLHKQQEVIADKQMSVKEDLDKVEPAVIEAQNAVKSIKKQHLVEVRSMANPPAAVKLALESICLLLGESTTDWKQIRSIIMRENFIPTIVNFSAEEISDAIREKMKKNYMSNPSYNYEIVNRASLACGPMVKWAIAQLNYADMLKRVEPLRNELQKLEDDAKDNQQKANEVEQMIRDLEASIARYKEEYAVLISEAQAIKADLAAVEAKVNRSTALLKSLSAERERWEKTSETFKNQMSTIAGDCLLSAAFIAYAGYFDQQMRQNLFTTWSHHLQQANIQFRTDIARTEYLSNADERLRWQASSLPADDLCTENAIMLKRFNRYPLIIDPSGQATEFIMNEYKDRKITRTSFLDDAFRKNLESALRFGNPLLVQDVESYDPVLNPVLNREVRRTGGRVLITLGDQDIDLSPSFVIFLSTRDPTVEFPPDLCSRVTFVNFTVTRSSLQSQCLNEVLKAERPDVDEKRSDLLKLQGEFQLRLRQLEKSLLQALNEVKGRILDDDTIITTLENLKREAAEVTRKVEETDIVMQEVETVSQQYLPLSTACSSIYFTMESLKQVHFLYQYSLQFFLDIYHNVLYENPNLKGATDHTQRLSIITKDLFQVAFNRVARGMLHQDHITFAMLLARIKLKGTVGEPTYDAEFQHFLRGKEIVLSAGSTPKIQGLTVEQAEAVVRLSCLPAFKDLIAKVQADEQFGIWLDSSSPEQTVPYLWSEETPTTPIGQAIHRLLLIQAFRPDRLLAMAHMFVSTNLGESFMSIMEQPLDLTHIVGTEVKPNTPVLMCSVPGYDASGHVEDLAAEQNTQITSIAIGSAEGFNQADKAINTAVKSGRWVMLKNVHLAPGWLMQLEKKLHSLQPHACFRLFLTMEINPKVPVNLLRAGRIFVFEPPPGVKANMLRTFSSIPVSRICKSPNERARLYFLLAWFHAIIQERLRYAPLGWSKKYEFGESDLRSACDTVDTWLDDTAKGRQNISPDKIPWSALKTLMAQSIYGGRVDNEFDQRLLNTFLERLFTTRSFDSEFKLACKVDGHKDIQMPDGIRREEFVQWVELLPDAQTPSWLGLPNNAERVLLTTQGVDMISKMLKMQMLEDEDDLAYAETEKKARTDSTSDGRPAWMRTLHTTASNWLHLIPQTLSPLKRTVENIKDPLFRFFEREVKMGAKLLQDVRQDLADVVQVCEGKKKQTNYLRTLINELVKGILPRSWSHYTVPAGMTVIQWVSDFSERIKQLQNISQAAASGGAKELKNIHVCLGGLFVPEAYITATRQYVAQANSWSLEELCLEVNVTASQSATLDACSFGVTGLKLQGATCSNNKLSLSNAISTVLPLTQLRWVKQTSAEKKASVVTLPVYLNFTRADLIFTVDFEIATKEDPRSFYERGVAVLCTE

With “cytoplasmic dynein heavy chain (Dync1h1) (from UniProt Q9JHU4 1-4644)” the binding was “binds”.

From doi:10.1101/2025.09.03.674015
